# Measured values: the supplement of paper PMC10032668
# By UniProt entry, the sequences of proteins in these tests, tags left out.
# APOA1, P02647, UniProt P02647, whole entry: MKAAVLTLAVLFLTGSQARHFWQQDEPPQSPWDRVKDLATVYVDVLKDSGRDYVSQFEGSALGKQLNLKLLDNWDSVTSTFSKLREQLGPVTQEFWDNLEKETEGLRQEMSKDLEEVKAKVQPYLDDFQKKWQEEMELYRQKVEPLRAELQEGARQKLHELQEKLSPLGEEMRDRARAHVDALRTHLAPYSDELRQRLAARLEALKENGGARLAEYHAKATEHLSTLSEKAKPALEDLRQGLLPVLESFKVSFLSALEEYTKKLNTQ
# COX7A2, P14406, UniProt P14406, whole entry: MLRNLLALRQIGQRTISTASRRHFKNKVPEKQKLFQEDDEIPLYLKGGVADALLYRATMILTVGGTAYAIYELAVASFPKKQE
# EIF2B5, Q13144, UniProt Q13144, whole entry: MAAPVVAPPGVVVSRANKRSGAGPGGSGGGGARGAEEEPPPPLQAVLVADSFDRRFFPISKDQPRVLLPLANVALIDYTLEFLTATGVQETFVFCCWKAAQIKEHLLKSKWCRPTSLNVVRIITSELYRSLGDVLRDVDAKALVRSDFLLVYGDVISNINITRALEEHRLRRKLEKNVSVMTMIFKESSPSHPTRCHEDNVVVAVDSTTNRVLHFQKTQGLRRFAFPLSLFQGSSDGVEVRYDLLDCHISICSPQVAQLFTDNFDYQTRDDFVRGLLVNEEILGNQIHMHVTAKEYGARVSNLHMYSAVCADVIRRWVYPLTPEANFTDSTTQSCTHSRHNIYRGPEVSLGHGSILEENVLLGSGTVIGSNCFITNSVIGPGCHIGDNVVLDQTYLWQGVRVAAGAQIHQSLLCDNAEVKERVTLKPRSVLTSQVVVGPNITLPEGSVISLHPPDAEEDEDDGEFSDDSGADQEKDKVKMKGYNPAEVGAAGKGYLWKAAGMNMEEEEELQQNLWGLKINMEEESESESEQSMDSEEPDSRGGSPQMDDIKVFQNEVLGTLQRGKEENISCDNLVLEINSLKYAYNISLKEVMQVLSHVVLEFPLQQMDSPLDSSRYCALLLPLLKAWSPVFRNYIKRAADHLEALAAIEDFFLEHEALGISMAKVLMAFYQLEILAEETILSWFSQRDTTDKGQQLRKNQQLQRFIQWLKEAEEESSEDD
# EPB41L3, Q9Y2J2, UniProt Q9Y2J2, whole entry: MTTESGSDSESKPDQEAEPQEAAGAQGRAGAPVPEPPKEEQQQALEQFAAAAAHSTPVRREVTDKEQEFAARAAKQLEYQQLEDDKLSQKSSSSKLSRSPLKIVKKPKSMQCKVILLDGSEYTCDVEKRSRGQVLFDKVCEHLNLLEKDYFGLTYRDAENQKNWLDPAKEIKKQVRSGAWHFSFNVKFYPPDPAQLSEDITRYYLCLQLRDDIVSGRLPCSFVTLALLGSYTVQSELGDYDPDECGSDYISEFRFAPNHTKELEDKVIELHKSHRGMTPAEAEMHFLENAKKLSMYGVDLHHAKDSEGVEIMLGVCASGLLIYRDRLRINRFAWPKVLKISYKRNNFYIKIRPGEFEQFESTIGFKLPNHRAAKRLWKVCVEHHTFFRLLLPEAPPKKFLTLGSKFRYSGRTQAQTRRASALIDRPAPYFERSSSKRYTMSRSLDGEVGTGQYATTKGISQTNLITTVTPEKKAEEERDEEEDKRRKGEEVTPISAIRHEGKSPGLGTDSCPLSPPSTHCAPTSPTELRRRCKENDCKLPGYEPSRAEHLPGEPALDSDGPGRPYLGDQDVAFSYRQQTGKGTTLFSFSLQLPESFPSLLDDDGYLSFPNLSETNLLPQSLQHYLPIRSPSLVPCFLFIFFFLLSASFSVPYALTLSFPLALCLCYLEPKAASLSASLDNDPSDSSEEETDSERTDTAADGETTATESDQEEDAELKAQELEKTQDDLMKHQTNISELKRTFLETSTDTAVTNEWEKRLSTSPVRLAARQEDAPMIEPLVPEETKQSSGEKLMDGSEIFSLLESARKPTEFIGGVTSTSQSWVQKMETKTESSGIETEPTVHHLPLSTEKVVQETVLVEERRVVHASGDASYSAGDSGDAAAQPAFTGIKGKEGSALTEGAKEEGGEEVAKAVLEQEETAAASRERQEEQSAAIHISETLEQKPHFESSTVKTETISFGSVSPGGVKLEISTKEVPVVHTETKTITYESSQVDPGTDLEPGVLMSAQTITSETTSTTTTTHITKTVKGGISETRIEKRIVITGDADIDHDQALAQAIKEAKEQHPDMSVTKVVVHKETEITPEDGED
# MED1, Q15648, UniProt Q15648, whole entry: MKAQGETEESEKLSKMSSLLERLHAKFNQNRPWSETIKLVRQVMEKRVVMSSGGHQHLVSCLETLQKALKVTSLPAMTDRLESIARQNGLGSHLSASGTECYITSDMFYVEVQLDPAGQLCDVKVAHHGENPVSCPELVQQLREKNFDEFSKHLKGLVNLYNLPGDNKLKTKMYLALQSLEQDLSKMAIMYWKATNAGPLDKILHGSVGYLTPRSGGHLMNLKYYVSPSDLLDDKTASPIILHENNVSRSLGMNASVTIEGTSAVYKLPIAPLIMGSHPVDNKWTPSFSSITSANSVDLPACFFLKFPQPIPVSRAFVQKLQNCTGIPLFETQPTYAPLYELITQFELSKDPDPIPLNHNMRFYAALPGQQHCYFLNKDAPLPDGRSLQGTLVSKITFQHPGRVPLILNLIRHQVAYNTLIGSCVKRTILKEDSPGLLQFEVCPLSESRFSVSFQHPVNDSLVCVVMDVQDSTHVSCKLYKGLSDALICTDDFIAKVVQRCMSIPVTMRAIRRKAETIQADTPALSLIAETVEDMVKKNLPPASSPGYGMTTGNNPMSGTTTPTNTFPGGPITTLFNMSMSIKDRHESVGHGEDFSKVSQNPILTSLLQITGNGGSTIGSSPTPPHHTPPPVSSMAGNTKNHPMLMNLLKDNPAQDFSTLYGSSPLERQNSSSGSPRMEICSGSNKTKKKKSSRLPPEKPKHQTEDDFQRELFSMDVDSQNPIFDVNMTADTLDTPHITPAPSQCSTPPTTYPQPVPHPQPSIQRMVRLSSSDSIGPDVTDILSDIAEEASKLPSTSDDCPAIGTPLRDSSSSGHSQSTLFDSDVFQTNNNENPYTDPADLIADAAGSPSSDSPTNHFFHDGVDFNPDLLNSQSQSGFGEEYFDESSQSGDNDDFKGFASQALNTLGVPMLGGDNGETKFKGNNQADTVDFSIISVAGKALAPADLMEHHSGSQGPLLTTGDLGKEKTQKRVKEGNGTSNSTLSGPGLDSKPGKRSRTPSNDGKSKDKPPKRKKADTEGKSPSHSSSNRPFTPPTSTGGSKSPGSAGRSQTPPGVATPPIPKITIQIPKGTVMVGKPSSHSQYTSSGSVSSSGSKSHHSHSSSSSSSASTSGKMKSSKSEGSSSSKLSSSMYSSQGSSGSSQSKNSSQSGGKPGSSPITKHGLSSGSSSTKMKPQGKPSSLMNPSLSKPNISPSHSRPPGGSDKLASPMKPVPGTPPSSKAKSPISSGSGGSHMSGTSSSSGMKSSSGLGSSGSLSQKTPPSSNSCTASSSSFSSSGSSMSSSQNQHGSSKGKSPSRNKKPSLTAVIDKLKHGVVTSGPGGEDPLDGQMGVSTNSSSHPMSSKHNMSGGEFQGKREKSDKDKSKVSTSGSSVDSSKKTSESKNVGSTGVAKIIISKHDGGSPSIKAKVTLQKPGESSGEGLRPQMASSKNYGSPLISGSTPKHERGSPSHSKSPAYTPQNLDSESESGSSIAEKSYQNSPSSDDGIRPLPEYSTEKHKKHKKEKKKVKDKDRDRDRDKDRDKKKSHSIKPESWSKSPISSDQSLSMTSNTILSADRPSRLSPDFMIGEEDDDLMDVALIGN
# POLR1C, O15160, UniProt O15160, whole entry: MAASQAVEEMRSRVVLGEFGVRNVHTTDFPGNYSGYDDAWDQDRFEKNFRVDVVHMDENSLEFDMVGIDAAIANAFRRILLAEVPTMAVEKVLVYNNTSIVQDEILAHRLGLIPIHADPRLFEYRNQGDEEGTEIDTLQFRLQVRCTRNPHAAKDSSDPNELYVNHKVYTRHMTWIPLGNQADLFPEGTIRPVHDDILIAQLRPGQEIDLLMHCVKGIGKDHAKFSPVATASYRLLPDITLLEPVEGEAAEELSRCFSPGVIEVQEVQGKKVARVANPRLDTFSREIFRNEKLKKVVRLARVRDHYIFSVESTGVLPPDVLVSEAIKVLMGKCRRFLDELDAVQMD
# RFC4, P35249, UniProt P35249, whole entry: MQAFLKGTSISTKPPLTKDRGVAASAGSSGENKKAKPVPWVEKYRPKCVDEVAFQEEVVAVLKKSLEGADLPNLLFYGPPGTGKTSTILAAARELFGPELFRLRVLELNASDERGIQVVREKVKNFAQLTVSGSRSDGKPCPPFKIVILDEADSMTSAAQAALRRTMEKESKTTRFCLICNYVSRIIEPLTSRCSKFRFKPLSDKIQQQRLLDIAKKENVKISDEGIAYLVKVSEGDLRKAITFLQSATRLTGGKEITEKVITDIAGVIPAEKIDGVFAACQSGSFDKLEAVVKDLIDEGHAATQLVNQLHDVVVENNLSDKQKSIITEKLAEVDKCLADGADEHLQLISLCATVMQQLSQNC
# SMC4, Q9NTJ3, UniProt Q9NTJ3, whole entry: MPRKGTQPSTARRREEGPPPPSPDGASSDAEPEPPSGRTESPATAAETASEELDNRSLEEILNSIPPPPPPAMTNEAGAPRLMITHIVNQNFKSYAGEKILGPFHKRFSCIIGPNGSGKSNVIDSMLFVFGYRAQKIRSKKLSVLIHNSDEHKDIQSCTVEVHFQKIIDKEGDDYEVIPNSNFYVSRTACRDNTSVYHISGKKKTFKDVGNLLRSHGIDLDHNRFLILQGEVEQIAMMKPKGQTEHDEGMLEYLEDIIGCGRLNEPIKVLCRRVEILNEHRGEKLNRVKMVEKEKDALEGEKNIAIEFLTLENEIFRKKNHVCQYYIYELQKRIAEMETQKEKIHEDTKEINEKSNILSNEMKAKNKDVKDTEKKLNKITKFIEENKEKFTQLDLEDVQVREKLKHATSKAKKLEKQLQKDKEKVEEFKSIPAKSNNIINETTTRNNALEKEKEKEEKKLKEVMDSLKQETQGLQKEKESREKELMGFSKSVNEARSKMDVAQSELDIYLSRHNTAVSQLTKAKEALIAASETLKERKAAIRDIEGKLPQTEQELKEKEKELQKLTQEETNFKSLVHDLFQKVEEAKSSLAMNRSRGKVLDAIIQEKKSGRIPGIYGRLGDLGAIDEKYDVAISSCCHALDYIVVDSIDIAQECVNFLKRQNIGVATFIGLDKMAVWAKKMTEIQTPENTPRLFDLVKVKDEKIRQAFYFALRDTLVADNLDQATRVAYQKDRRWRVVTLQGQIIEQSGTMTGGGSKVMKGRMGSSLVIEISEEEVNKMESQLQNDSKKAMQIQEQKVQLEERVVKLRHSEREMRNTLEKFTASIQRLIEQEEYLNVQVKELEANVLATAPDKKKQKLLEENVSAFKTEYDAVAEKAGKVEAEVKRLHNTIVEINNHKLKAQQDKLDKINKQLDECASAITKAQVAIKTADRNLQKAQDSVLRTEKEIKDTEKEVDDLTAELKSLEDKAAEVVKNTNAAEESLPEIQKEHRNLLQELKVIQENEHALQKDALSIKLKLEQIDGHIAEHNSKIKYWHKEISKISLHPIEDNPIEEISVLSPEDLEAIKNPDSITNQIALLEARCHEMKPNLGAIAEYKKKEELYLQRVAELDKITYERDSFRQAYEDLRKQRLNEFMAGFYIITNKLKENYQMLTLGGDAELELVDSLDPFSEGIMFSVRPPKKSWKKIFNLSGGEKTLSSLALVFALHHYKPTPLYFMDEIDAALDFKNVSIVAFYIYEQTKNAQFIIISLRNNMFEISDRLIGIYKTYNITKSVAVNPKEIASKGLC
# SS18, Q15532, UniProt Q15532, whole entry: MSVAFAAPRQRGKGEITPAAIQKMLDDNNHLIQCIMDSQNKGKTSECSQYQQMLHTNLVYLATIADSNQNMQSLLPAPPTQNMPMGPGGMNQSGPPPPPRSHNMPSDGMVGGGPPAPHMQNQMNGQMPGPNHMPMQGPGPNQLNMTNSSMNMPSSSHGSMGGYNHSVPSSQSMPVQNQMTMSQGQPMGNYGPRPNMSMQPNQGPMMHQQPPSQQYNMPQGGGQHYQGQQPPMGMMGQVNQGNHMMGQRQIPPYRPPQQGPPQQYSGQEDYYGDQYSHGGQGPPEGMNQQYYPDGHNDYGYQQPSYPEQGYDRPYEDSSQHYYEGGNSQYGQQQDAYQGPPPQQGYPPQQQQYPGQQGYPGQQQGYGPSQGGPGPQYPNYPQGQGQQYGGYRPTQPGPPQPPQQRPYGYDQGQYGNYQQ
# TRAPPC2L, Q9UL33, UniProt Q9UL33, whole entry: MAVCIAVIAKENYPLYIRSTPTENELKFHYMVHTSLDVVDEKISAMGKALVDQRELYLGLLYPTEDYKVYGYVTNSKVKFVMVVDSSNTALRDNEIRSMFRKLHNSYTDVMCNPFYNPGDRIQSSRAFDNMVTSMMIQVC
# The other results are listed elsewhere or left out. The list holds hits alone, and they repeat only in part.
# B1: RP11-432J24.5_2 (peptide)
# chain: PALCGHLISTGLGKQ
# Tests used:
# Assay in all cases: PRISMA enrichment of interactor (LFQ) in peptide spot vs all other peptide spots (log2 fold change); higher = stronger / more specific binding of the interactor to the peptide
# [1] = biological target: AKAP17A, Q02040
# Procedure: (§1)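 PRISMA: 15-aa overlapping tiles (offset 8 aa) of 60 microproteins, plus SOS1/GLUT1 control peptides, were spot-synthesized on cellulose membranes in triplicate. Membranes were incubated with benzonase-treated HEK293T lysate, and bound proteins were identified by LC-MS/MS with LFQ. Enrichment is the log2 fold change of each protein in one spot versus all other spots. Only interactors passing the significance cutoff are listed.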
# [2] = biological target: APOA1, P02647
# Procedure: as §1
# [3] = biological target: ARHGAP19, Q14CB8
# Procedure: as §1
# [4] = biological target: ASCC3, Q8N3C0
# Procedure: as §1
# [5] = biological target: AURKA, O14965
# Procedure: as §1
# [6] = biological target: CC2D1A, Q6P1N0
# Procedure: as §1
# [7] = biological target: CCT7, Q99832
# Procedure: as §1
# [8] = biological target: CIP2A, Q8TCG1
# Procedure: as §1
# [9] = biological target: COX7A2, P14406
# Procedure: as §1
# [10] = biological target: CREB1, P16220
# Procedure: as §1
# [11] = substrate: CS, O75390
# Procedure: as §1
# [12] = biological target: CSNK1E, P49674
# Procedure: as §1
# [13] = biological target: DDX18, Q9NVP1
# Procedure: as §1
# [14] = biological target: DDX50, Q9BQ39
# Procedure: as §1
# [15] = biological target: DOCK7, Q96N67
# Procedure: as §1
# [16] = biological target: DSG2, Q14126
# Procedure: as §1
# [17] = biological target: EIF2B3, Q9NR50
# Procedure: as §1
# [18] = biological target: EIF2B5, Q13144
# Procedure: as §1
# [19] = biological target: ENSA, O43768
# Procedure: as §1
# [20] = biological target: EPB41L3, Q9Y2J2
# Procedure: as §1
# [21] = biological target: ERAL1, O75616
# Procedure: as §1
# [22] = biological target: FLNB, O75369
# Procedure: as §1
# [23] = biological target: FUBP1, Q96AE4
# Procedure: as §1
# [24] = biological target: GEMIN7, Q9H840
# Procedure: as §1
# [25] = biological target: GLS, O94925
# Procedure: as §1
# [26] = biological target: GSTP1, P09211
# Procedure: as §1
# [27] = biological target: HNRNPDL, O14979
# Procedure: as §1
# [28] = biological target: HP, P00738
# Procedure: as §1
# [29] = biological target: KLF16, Q9BXK1
# Procedure: as §1
# [30] = biological target: MACF1
# Procedure: as §1
# [31] = biological target: MAP7, Q14244
# Procedure: as §1
# [32] = biological target: MBNL1, Q9NR56
# Procedure: as §1
# [33] = biological target: MED1, Q15648
# Procedure: as §1
# [34] = biological target: MLEC, Q14165
# Procedure: as §1
# [35] = biological target: MRPL22, Q9NWU5
# Procedure: as §1
# [36] = biological target: MRPS28, Q9Y2Q9
# Procedure: as §1
# [37] = biological target: MRPS33, Q9Y291
# Procedure: as §1
# [38] = biological target: NOB1, Q9ULX3
# Procedure: as §1
# [39] = biological target: NOL11, Q9H8H0
# Procedure: as §1
# [40] = biological target: NUSAP1, Q9BXS6
# Procedure: as §1
# [41] = biological target: ORC5, O43913
# Procedure: as §1
# [42] = biological target: POLR1C, O15160
# Procedure: as §1
# [43] = biological target: POLRMT, O00411
# Procedure: as §1
# [44] = biological target: POP7, O75817
# Procedure: as §1
# [45] = biological target: PPHLN1, Q8NEY8
# Procedure: as §1
# [46] = biological target: PTBP3, O95758
# Procedure: as §1
# [47] = biological target: QKI, Q96PU8
# Procedure: as §1
# [48] = biological target: RAB2A, P61019
# Procedure: as §1
# [49] = biological target: RFC4, P35249
# Procedure: as §1
# [50] = biological target: RFC5, P40937
# Procedure: as §1
# [51] = biological target: RIOK1, Q9BRS2
# Procedure: as §1
# [52] = biological target: SEPTIN9, Q9UHD8
# Procedure: as §1
# [53] = biological target: SERPINH1, P50454
# Procedure: as §1
# [54] = biological target: SHMT2, P34897
# Procedure: as §1
# [55] = biological target: SMC4, Q9NTJ3
# Procedure: as §1
# [56] = biological target: SPATS2L, Q9NUQ6
# Procedure: as §1
# [57] = biological target: SPCS2, Q15005
# Procedure: as §1
# [58] = biological target: SS18, Q15532
# Procedure: as §1
# [59] = biological target: STAU1, O95793
# Procedure: as §1
# [60] = biological target: STK24, Q9Y6E0
# Procedure: as §1
# [61] = biological target: SUPT6H, Q7KZ85
# Procedure: as §1
# [62] = biological target: TEX10, Q9NXF1
# Procedure: as §1
# [63] = biological target: TP53I11, O14683
# Procedure: as §1
# [64] = biological target: TRAPPC2L, Q9UL33
# Procedure: as §1
# [65] = biological target: TRMT112, Q9UI30
# Procedure: as §1
# [66] = biological target: UGDH, O60701
# Procedure: as §1
# [67] = biological target: ZC2HC1A, Q96GY0
# Procedure: as §1
# [68] = biological target: ZNF146, Q15072
# Procedure: as §1
binder,measurement,setting,value
B1,PRISMA enrichment of interactor (log2),[1],7.86
same,PRISMA enrichment of interactor (log2),[2],4.1
same,PRISMA enrichment of interactor (log2),[3],4.82
same,PRISMA enrichment of interactor (log2),[4],5.32
same,PRISMA enrichment of interactor (log2),[5],4.76
same,PRISMA enrichment of interactor (log2),[6],6.83
same,PRISMA enrichment of interactor (log2),[7],4.88
same,PRISMA enrichment of interactor (log2),[8],8.01
same,PRISMA enrichment of interactor (log2),[9],6.5
same,PRISMA enrichment of interactor (log2),[10],4.26
same,PRISMA enrichment of interactor (log2),[11],4.02
same,PRISMA enrichment of interactor (log2),[12],4.98
same,PRISMA enrichment of interactor (log2),[13],4.77
same,PRISMA enrichment of interactor (log2),[14],4.47
same,PRISMA enrichment of interactor (log2),[15],4.15
same,PRISMA enrichment of interactor (log2),[16],4.96
same,PRISMA enrichment of interactor (log2),[17],6.94
same,PRISMA enrichment of interactor (log2),[18],4.6
same,PRISMA enrichment of interactor (log2),[19],6.59
same,PRISMA enrichment of interactor (log2),[20],4.74
same,PRISMA enrichment of interactor (log2),[21],5.8
same,PRISMA enrichment of interactor (log2),[22],5.2
same,PRISMA enrichment of interactor (log2),[23],5.69
same,PRISMA enrichment of interactor (log2),[24],7.17
same,PRISMA enrichment of interactor (log2),[25],4.46
same,PRISMA enrichment of interactor (log2),[26],6.33
same,PRISMA enrichment of interactor (log2),[27],4.9
same,PRISMA enrichment of interactor (log2),[28],9.78
same,PRISMA enrichment of interactor (log2),[29],4.1
same,PRISMA enrichment of interactor (log2),[30],7.19
same,PRISMA enrichment of interactor (log2),[31],3.96
same,PRISMA enrichment of interactor (log2),[32],4.26
same,PRISMA enrichment of interactor (log2),[33],6.91
same,PRISMA enrichment of interactor (log2),[34],4.84
same,PRISMA enrichment of interactor (log2),[35],5.46
same,PRISMA enrichment of interactor (log2),[36],6.09
same,PRISMA enrichment of interactor (log2),[37],4.05
same,PRISMA enrichment of interactor (log2),[38],5.29
same,PRISMA enrichment of interactor (log2),[39],4.31
same,PRISMA enrichment of interactor (log2),[40],6.97
same,PRISMA enrichment of interactor (log2),[41],6.99
same,PRISMA enrichment of interactor (log2),[42],5.95
same,PRISMA enrichment of interactor (log2),[43],5.82
same,PRISMA enrichment of interactor (log2),[44],3.69
same,PRISMA enrichment of interactor (log2),[45],7.93
same,PRISMA enrichment of interactor (log2),[46],3.87
same,PRISMA enrichment of interactor (log2),[47],6.78
same,PRISMA enrichment of interactor (log2),[48],4.32
same,PRISMA enrichment of interactor (log2),[49],4.71
same,PRISMA enrichment of interactor (log2),[50],4.83
same,PRISMA enrichment of interactor (log2),[51],5.52
same,PRISMA enrichment of interactor (log2),[52],4.23
same,PRISMA enrichment of interactor (log2),[53],5.22
same,PRISMA enrichment of interactor (log2),[54],7.04
same,PRISMA enrichment of interactor (log2),[55],5.32
same,PRISMA enrichment of interactor (log2),[56],5.59
same,PRISMA enrichment of interactor (log2),[57],6.7
same,PRISMA enrichment of interactor (log2),[58],3.93
same,PRISMA enrichment of interactor (log2),[59],5.14
same,PRISMA enrichment of interactor (log2),[60],5.04
same,PRISMA enrichment of interactor (log2),[61],7.55
same,PRISMA enrichment of interactor (log2),[62],5.13
same,PRISMA enrichment of interactor (log2),[63],3.75
same,PRISMA enrichment of interactor (log2),[64],5.94
same,PRISMA enrichment of interactor (log2),[65],6.21
same,PRISMA enrichment of interactor (log2),[66],4.24
same,PRISMA enrichment of interactor (log2),[67],5.58
same,PRISMA enrichment of interactor (log2),[68],4.88

# Quoted from the entries so far for reference:
binder,measurement,setting,value
B1,PRISMA enrichment of interactor (log2),[38],5.29
same,PRISMA enrichment of interactor (log2),[39],4.31

# 3 records picked at random from the list so far:
binder,measurement,setting,value
B1,PRISMA enrichment of interactor (log2),[30],7.19
same,PRISMA enrichment of interactor (log2),[33],6.91
same,PRISMA enrichment of interactor (log2),[52],4.23
